Data published in the supplement of paper PMC12819154, “High-throughput peptide-centric local stability assay extends protein–ligand identification to membrane proteins, tissues and bacteria” (Nature Structural & Molecular Biology, 2025).
This is one part of the list. Most entries show no effect beyond the scatter of the controls.

Sequences of proteins named here, by UniProt entry; tags and fusion partners are left off. A change or cut given only in a name is not applied to a line headed by its entry.
UniProt Q9WU00: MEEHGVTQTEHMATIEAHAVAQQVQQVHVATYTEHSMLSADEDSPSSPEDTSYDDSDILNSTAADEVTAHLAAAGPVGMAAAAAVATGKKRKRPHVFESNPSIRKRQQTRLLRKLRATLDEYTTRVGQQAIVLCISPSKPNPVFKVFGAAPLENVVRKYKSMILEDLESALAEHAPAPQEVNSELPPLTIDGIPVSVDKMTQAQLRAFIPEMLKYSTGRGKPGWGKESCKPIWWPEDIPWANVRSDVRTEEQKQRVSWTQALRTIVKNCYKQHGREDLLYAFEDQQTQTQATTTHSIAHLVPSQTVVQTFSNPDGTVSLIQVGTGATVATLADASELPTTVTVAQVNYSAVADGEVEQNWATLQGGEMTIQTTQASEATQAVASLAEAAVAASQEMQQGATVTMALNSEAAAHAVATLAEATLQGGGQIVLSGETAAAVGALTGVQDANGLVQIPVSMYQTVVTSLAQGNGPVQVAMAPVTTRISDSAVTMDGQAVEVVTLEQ
UniProt Q9Z2X8, whole entry: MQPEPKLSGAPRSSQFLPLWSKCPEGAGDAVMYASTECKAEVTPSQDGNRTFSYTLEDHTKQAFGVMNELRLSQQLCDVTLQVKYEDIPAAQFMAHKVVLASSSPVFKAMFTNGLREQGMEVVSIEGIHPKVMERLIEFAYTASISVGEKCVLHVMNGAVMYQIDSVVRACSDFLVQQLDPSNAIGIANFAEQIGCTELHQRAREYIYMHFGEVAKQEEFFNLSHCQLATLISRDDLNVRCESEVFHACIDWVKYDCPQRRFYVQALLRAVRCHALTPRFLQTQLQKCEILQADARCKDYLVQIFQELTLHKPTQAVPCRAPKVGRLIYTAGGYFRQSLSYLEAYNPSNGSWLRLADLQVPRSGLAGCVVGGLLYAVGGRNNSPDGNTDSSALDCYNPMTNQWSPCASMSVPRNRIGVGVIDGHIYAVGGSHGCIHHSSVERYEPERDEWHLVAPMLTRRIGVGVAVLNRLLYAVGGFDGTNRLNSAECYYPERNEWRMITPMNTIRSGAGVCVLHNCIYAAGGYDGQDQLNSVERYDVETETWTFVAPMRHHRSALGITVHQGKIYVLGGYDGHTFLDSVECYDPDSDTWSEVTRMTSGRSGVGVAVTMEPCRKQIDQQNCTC
UniProt Q9Z2Y3: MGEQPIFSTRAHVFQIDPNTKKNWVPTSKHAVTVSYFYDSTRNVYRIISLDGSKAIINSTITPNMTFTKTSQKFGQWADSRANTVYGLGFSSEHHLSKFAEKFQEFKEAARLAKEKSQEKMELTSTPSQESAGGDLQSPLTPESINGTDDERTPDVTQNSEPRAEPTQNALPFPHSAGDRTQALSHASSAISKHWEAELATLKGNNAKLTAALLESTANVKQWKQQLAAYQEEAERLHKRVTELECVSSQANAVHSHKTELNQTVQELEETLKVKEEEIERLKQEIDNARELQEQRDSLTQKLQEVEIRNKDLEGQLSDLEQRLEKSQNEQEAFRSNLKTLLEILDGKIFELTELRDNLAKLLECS
UniProt Q9WTQ8: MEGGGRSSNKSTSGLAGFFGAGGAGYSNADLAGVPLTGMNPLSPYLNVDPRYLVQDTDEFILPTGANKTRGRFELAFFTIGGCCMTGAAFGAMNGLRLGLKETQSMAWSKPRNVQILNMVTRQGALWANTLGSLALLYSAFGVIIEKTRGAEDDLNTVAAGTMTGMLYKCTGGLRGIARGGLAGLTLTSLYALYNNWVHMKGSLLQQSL
UniProt Q9Z1S0, whole entry: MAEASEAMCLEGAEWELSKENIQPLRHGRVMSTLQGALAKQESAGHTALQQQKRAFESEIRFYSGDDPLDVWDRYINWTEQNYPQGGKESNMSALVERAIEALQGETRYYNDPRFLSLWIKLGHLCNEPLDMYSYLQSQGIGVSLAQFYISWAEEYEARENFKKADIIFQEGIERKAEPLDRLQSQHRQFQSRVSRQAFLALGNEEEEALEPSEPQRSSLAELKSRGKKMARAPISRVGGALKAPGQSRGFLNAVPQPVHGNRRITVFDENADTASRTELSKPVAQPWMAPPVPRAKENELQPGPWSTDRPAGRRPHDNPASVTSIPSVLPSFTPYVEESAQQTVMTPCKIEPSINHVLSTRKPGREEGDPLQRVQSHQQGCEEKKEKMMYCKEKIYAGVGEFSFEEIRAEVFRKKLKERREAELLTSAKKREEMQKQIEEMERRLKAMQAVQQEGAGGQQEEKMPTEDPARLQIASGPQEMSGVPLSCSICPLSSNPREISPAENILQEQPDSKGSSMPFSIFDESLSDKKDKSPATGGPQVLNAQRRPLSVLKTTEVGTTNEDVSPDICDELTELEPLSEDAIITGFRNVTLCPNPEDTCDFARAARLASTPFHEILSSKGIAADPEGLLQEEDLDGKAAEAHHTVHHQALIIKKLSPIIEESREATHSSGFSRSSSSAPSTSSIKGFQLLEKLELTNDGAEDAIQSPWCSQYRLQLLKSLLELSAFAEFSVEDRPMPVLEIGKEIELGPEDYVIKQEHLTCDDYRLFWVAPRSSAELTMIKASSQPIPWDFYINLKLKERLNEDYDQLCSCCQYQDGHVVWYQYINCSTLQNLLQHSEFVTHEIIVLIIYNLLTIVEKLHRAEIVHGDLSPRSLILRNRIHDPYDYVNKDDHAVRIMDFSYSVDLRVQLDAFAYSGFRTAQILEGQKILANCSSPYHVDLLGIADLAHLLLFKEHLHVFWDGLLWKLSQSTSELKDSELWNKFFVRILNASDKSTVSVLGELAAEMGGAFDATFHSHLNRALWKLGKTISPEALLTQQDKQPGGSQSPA
UniProt Q9Z2I8: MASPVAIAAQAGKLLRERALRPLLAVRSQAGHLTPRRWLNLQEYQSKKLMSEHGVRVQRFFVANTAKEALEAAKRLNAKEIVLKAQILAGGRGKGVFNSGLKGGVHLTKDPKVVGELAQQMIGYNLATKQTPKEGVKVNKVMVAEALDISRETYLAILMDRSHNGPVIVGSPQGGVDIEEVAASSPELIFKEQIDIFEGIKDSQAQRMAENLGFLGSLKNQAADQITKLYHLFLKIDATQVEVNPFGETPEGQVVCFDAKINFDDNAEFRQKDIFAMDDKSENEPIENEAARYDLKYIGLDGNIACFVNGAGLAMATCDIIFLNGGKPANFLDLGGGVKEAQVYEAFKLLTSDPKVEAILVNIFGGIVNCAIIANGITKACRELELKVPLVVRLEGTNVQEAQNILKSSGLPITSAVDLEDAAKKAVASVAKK
UniProt Q9WVJ2: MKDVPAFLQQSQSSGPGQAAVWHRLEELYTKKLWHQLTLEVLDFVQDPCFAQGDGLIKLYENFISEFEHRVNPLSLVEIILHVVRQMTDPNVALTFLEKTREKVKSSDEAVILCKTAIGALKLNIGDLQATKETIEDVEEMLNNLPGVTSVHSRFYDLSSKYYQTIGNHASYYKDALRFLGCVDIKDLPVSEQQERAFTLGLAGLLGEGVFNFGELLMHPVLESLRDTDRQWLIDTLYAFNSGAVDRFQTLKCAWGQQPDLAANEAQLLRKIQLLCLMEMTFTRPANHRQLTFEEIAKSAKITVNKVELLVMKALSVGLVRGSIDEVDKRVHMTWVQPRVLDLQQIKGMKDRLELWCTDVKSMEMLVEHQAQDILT
UniProt Q9R269: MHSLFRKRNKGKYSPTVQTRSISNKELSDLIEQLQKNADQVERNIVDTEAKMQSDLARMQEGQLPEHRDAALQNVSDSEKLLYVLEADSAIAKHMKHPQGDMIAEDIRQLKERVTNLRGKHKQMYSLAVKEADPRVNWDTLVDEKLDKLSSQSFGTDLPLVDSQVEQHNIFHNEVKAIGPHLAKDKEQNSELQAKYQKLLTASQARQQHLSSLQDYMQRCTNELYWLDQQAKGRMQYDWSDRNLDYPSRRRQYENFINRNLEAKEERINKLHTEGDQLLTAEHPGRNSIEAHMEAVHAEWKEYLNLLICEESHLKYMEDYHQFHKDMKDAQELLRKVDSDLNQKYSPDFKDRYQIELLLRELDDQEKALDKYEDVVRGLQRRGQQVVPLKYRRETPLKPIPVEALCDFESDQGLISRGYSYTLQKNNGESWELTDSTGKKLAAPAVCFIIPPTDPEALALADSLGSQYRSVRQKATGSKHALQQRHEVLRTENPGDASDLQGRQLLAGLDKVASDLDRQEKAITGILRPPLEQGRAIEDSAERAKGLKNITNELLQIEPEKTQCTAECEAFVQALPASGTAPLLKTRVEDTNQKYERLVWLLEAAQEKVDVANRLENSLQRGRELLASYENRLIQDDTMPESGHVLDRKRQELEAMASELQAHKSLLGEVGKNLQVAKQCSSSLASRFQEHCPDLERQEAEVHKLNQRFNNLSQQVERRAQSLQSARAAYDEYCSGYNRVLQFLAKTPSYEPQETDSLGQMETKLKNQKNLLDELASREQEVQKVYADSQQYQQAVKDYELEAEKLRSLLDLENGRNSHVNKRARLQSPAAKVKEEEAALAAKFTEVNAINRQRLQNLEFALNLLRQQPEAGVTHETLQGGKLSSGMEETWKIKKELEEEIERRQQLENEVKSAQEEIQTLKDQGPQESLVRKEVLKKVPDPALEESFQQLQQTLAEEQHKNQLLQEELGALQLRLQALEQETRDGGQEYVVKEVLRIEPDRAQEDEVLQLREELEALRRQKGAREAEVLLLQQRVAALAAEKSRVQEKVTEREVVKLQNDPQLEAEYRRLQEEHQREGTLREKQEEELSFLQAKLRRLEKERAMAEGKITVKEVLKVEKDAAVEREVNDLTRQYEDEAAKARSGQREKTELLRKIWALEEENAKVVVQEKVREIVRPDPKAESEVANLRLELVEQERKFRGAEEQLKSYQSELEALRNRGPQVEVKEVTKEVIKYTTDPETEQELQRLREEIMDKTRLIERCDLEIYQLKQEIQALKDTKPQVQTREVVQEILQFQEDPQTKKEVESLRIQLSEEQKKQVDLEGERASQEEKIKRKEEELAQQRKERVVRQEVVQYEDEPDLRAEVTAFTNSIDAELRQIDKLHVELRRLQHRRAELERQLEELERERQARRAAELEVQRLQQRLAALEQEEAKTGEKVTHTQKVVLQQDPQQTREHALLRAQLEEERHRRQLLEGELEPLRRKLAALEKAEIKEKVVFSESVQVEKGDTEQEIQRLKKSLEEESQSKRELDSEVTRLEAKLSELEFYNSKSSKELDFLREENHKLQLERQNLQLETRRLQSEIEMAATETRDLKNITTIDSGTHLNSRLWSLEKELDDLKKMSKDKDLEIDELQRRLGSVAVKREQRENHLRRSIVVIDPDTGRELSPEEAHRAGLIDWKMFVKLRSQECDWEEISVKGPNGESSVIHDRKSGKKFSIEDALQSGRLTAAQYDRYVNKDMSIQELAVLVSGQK
UniProt Q9R0Y5: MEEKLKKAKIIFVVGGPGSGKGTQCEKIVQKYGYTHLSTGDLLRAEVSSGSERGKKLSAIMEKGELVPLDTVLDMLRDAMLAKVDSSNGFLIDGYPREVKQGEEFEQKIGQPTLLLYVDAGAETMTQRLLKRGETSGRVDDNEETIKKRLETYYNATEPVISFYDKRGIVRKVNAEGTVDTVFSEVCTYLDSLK
UniProt Q9WTP7: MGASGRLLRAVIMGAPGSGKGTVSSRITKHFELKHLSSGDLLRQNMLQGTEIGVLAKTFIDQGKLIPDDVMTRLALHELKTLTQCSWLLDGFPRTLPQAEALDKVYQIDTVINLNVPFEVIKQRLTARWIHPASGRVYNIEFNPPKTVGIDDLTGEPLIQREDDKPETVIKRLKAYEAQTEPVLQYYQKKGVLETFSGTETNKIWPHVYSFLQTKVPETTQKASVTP
UniProt Q9WU84: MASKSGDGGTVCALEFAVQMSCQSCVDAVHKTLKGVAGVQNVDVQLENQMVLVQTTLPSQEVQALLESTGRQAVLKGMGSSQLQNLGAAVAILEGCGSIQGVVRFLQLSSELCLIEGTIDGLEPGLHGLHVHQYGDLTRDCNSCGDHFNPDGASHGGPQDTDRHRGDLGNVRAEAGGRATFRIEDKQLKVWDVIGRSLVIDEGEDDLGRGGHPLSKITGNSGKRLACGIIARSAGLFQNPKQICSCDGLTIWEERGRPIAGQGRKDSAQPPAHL
UniProt Q9R062: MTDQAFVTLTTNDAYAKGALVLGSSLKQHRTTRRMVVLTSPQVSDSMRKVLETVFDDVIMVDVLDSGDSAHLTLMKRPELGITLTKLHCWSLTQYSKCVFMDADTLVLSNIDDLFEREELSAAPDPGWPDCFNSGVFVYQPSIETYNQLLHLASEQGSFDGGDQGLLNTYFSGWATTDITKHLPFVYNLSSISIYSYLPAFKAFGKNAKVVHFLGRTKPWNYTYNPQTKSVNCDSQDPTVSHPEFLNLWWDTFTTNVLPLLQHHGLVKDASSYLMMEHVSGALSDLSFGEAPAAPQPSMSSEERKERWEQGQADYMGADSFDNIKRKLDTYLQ
UniProt Q9R0Q3: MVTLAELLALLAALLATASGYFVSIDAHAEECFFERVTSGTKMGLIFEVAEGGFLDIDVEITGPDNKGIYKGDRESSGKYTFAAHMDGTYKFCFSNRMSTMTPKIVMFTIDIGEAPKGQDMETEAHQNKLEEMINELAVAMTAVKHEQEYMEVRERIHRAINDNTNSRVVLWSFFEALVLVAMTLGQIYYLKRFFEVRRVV

The targets below were run with CN[C@@H]1C[C@H]2O[C@@](C)([C@@H]1OC)n1c3ccccc3c3c4c(c5c6ccccc6n2c5c31)C(=O)NC4 [staurosporine] (assay: log2 fold change of pooled soluble protein (PISA), ligand vs vehicle (log2 ratio); higher = more thermally stabilized). Conditions: ligand concentration: 20 uM; assay format: PISA pool 52.9/55.5/58.6 C.
With UniProt Q9Z0M5 the “log2 fold change of pooled soluble protein” value (shortened to “log2 fold change”) was 0.0321.
In the case of UniProt Q9Z0S9, the “log2 fold change” value is reported as -0.0653.
For UniProt Q9WU00, the “log2 fold change” value was -0.03.
For UniProt Q9Z2X8, the “log2 fold change” value was 0.0916.
With UniProt Q9Z2Y3 the “log2 fold change” value was -0.12.
For UniProt Q9QYI4, the “log2 fold change” value was 0.0513.
UniProt Q9Z2G6 was tested, and the “log2 fold change” value was 0.107.
UniProt Q9Z148 was tested, and the “log2 fold change” value was -0.142.
In the case of UniProt Q9WTQ8, the “log2 fold change” value is reported as -0.38.
For UniProt Q9Z1S0, the “log2 fold change” value was 0.124.
In the case of UniProt Q9Z224, the “log2 fold change” value is reported as -0.0362.
With UniProt Q9Z1P6 the “log2 fold change” value was -0.111.
For UniProt Q9WUA2, the “log2 fold change” value was -0.122.
With UniProt Q9Z2I8 the “log2 fold change” value was -0.0778.
With UniProt Q9WVD5 the “log2 fold change” value was 0.103.
UniProt Q9Z2M7 was tested, and the “log2 fold change” value was -0.166.
UniProt Q9QZ88 was tested, and the “log2 fold change” value was -0.158.
UniProt Q9WV85 was tested, and the “log2 fold change” value was -0.0916.
In the case of UniProt Q9WVJ2, the “log2 fold change” value is reported as 0.0478.
In the case of UniProt Q9R0Z9, the “log2 fold change” value is reported as 0.139.
For UniProt Q9R269, the “log2 fold change” value was -0.0303.
With UniProt Q9R0Y5 the “log2 fold change” value was -0.0452.
In the case of UniProt Q9WTP7, the “log2 fold change” value is reported as -0.0753.
In the case of UniProt Q9QZN4, the “log2 fold change” value is reported as -0.0839.
UniProt Q9WVG6 was tested, and the “log2 fold change” value was 0.237.
With UniProt Q9Z1N5 the “log2 fold change” value was 0.105.
For UniProt Q9WU84, the “log2 fold change” value was -0.0879.
UniProt Q9Z2W0 was tested, and the “log2 fold change” value was -0.0471.
With UniProt Q9R233 the “log2 fold change” value was 0.0188.
In the case of UniProt Q9Z130, the “log2 fold change” value is reported as 0.0833.
In the case of UniProt Q9R062, the “log2 fold change” value is reported as -0.0984.
UniProt Q9Z1G3 was tested, and the “log2 fold change” value was 0.184.
With UniProt Q9Z0H8 the “log2 fold change” value was -0.0151.
In the case of UniProt Q9R1Q6, the “log2 fold change” value is reported as -0.0707.
In the case of UniProt Q9R0P3, the “log2 fold change” value is reported as 0.0119.
UniProt Q9R1P4 was tested, and the “log2 fold change” value was -0.099.
With UniProt Q9R0Q3 the “log2 fold change” value was -0.0568.
UniProt Q9WTP2 was tested, and the “log2 fold change” value was -0.0296.
UniProt Q9WV54 was tested, and the “log2 fold change” value was -0.0441.
